The other results are listed elsewhere or left out. Most entries show no effect beyond the scatter of the controls.

Chains of the proteins cited; added tags and fusions are not shown. Lines headed by an entry give the natural chain unless they say otherwise; changes in a name come on top.
UniProt Q9R0E1: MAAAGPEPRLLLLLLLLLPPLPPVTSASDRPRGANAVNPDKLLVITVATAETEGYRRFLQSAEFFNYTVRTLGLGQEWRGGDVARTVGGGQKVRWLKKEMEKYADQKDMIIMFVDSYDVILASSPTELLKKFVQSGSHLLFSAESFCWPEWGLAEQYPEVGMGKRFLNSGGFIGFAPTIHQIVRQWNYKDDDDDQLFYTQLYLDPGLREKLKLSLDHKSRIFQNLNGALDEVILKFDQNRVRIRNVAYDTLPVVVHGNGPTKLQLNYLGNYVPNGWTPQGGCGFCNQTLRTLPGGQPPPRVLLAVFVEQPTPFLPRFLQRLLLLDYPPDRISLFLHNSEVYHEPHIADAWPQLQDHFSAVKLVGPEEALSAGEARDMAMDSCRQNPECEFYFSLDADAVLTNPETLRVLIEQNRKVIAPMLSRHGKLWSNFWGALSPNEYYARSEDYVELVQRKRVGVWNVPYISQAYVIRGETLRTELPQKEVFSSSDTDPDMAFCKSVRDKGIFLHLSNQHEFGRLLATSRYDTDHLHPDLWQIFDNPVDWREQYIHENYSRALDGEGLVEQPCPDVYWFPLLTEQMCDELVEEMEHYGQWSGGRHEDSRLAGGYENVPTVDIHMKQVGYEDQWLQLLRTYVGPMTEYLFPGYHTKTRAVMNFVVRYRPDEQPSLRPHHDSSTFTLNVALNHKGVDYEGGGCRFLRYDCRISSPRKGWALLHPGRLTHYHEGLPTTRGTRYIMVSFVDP
UniProt Q9R1V6: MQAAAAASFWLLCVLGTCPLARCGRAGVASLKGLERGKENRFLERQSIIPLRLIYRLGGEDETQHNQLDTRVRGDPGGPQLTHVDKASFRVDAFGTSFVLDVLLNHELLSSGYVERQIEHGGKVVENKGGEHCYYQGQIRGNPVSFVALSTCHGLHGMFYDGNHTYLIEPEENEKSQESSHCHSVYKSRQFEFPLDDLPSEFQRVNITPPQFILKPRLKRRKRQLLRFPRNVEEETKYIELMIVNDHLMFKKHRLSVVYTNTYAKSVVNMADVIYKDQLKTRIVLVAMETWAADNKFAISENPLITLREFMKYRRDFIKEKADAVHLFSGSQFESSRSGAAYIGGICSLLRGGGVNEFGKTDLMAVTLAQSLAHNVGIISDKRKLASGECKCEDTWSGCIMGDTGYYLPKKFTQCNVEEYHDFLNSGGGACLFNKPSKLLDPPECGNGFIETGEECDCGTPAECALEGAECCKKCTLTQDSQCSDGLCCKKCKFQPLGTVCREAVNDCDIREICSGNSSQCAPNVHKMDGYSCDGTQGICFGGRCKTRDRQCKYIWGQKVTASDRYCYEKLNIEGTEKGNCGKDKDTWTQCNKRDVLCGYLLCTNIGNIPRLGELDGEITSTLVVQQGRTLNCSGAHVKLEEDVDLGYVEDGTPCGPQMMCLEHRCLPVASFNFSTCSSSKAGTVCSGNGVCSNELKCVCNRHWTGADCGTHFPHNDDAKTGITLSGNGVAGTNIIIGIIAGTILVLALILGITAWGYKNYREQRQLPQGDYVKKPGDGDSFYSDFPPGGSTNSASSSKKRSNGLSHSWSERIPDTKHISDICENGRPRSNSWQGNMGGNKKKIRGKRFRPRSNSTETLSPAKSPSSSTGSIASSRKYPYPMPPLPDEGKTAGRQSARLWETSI
UniProt Q9R0C0: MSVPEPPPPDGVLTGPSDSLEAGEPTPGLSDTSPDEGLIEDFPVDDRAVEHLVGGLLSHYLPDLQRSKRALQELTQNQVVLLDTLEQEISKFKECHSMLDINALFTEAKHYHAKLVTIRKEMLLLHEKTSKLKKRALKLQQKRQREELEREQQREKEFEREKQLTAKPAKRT
UniProt Q9QYB5: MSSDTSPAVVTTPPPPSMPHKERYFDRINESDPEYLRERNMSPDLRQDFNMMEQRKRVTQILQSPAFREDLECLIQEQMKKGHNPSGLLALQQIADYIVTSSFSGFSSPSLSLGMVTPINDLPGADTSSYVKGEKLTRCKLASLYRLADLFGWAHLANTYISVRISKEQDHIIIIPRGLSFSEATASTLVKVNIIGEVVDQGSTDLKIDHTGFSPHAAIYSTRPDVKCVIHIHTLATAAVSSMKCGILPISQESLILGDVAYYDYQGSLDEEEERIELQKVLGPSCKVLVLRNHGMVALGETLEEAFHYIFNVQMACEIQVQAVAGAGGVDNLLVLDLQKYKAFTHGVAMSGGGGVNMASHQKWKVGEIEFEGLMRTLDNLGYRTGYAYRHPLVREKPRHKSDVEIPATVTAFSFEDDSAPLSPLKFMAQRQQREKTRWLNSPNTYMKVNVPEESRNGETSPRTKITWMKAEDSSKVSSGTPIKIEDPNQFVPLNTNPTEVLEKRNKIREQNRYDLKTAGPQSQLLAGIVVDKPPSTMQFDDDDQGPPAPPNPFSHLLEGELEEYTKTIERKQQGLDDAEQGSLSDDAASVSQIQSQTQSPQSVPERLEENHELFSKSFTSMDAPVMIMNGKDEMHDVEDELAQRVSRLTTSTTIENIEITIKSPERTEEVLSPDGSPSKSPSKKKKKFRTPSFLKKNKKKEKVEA
UniProt Q9R112: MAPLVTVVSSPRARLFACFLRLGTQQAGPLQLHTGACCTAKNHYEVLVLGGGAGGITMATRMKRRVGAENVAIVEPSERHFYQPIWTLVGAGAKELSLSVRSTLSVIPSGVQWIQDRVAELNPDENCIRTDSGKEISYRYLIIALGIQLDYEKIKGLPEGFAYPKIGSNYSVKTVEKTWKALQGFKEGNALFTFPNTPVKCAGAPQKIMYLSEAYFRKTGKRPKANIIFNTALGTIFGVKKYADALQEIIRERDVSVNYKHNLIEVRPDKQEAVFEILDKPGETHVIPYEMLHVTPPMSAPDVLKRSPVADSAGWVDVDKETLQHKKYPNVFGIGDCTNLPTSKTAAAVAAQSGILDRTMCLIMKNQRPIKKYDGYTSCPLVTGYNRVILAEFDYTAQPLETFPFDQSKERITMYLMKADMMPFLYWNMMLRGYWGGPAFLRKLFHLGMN
UniProt Q9R0E2: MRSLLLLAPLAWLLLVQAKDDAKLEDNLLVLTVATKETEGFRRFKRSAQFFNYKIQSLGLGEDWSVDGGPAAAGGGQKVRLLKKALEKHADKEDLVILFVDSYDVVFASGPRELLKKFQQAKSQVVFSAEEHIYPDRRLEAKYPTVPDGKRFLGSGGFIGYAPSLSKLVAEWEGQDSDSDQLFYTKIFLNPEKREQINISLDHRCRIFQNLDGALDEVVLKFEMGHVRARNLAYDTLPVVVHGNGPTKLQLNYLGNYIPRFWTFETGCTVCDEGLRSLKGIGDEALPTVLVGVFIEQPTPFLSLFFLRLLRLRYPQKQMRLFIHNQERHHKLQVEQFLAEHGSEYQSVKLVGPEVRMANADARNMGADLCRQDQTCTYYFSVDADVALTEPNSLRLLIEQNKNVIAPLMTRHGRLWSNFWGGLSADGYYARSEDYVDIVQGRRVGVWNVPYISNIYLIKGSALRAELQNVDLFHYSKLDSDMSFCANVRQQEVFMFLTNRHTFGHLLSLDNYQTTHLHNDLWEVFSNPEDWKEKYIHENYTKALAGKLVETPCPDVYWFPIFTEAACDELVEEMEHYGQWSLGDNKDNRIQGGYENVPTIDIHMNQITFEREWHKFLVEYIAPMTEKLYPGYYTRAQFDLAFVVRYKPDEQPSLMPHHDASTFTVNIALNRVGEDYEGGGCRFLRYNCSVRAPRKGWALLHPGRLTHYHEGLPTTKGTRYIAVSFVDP
UniProt Q9R194: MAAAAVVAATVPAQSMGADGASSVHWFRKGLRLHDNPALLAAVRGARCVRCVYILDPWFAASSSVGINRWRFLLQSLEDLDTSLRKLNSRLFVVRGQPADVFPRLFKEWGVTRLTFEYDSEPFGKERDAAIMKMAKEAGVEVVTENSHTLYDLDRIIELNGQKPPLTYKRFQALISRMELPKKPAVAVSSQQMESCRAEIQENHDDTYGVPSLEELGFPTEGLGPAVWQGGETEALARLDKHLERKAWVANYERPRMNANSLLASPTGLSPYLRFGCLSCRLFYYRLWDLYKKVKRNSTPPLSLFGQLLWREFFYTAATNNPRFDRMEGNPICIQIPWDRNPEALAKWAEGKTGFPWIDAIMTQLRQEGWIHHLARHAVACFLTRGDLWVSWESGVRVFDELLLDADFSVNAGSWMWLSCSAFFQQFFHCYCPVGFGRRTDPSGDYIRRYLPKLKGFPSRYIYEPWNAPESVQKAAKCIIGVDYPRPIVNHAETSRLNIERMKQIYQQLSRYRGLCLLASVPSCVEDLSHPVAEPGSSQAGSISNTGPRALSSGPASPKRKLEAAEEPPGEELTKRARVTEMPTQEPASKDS
UniProt Q9WUA6: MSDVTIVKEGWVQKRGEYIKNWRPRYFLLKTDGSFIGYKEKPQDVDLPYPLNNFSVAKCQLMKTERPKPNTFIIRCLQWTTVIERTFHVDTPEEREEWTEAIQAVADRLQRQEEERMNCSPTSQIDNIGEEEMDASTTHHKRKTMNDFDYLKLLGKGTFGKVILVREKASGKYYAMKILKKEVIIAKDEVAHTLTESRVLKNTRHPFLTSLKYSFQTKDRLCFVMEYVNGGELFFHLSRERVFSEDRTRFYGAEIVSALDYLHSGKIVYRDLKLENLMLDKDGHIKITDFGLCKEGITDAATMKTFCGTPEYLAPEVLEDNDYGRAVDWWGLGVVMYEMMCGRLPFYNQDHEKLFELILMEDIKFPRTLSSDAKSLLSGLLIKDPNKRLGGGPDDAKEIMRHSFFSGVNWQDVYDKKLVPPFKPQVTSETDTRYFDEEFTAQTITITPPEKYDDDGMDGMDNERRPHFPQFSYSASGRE
UniProt Q9QXM1, whole entry: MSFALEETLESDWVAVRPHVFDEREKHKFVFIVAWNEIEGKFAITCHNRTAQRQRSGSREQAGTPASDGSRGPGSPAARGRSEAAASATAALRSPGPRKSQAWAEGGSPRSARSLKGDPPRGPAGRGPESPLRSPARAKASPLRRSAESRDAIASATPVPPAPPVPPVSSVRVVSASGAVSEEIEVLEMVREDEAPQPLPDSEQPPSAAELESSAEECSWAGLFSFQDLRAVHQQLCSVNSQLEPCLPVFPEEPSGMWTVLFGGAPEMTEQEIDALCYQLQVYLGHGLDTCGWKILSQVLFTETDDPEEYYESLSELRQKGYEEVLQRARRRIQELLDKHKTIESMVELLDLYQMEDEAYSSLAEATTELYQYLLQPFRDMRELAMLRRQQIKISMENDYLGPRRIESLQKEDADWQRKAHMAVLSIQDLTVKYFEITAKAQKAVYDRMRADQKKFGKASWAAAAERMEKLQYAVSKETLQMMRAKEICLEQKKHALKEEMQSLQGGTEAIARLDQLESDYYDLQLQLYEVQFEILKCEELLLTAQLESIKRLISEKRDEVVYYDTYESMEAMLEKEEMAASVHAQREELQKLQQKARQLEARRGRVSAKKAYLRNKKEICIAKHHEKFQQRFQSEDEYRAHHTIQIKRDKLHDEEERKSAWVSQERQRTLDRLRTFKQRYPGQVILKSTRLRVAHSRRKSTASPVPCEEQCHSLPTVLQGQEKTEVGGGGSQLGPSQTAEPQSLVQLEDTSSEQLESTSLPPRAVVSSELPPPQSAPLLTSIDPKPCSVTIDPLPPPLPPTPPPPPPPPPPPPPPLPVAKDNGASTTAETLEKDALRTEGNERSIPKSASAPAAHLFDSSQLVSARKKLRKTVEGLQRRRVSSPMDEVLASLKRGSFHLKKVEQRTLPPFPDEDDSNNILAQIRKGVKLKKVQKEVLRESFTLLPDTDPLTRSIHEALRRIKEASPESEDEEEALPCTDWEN
UniProt Q9QXG2: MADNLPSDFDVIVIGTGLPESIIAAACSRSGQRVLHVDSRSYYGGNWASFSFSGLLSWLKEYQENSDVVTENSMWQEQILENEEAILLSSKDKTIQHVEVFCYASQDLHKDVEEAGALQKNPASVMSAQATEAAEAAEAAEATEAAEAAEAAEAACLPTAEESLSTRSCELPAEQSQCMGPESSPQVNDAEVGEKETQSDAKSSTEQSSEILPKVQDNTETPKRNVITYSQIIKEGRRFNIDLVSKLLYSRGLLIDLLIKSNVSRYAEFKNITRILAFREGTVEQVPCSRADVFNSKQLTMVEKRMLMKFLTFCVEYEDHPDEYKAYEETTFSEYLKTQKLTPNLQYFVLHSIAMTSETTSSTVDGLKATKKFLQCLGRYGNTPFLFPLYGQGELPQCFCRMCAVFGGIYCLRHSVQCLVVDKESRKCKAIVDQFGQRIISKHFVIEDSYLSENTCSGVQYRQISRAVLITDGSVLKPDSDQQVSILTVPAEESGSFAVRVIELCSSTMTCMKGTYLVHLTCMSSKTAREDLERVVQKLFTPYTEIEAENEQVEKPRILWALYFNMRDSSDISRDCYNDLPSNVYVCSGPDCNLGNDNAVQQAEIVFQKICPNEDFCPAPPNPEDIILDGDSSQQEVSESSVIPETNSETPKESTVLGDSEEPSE
UniProt Q9WUD8: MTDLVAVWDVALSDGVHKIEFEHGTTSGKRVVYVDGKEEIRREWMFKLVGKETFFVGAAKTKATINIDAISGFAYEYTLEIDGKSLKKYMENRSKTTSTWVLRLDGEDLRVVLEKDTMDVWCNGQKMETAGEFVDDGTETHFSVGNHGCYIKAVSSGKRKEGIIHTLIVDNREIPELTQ

Compound in the experiment: CN[C@@H]1C[C@H]2O[C@@](C)([C@@H]1OC)n1c3ccccc3c3c4c(c5c6ccccc6n2c5c31)C(=O)NC4 [staurosporine]
As to the kind of experiment: log2 fold change of tryptic peptide abundance, ligand vs vehicle (limited proteolysis) (log2 ratio); higher = more trypsin-susceptible (destabilized). Conditions: ligand concentration: 20 uM; sample: mouse liver crude lysate; replicate design: treated separately.
With “UniProt Q9QZ06 (peptide sequence: LSITVVQAK, peptide start residue: 55)”, the log2 fold change was -0.354.
Next, “UniProt Q9R0E1 (peptide sequence: LTHYHEGLPTTR, peptide start residue: 718)”: 0.318.
Take “UniProt Q9R1V6 (peptide sequence: AGVASLK, peptide start residue: 26)”: the log2 fold change worked out at 0.305.
Turning to “UniProt Q9R0C0 (peptide sequence: AVEHLVGGLLSHYLPDLQR, peptide start residue: 48)”, the log2 fold change was -0.417.
Next, “UniProt Q9QZ88 (peptide sequence: TLAGDVHIVR, peptide start residue: 51)”: 0.0185; “UniProt Q9R1E0 (peptide sequence: TLPHVVNTMPHTSAMNR, peptide start residue: 535)”: 0.243.
Turning to “UniProt Q9QXY6 (peptide sequence: VYIGSFWSHPLLIPDNRK, peptide start residue: 252)”, the log2 fold change stood at 0.215.
Consider “UniProt Q9R0N0 (peptide sequence: AAWRPPRVEELLAEAR, peptide start residue: 2)”, for which the log2 fold change is -0.273.
As to “UniProt Q9QY30 (peptide sequence: IDFIDCK, peptide start residue: 1078)”, the log2 fold change is -0.67.
As to “UniProt Q9R0L7 (peptide sequence: GALTAQDESSQAKR, peptide start residue: 351)”, the log2 fold change is -0.637.
For “UniProt Q9QYB5 (peptide sequence: SPERTEEVLSPDGSPSK, peptide start residue: 664)”, the log2 fold change is -0.506.
Next, “UniProt Q9WV54 (peptide sequence: SGEGCVITR, peptide start residue: 287)”: -0.665; “UniProt Q9R0Y5 (peptide sequence: RGETSGRVDDNEETIK, peptide start residue: 132)”: 0.518.
For the target “UniProt Q9WUQ2 (peptide sequence: LFTVQIPHKR, peptide start residue: 264)”, the log2 fold change stood at 0.797.
For the target “UniProt Q9R112 (peptide sequence: RSPVADSAGWVDVDKETLQHK, peptide start residue: 306)”, the log2 fold change was -0.145.
Under “UniProt Q9QZB9 (peptide sequence: SEYIETASGNK, peptide start residue: 11)” stands -0.459; under “UniProt Q9R0E2 (peptide sequence: VGEDYEGGGCR, peptide start residue: 672)”, 0.389; under “UniProt Q9QZE5 (peptide sequence: TLEEAVGNIVK, peptide start residue: 796)”, -0.539.
As to “UniProt Q9R194 (peptide sequence: LHDNPALLAAVR, peptide start residue: 33)”, the log2 fold change is -0.353.
Take “UniProt Q9R045 (peptide sequence: VHKQELELLNNELLK, peptide start residue: 84)”: the log2 fold change was -0.269.
As for “UniProt Q9QXG9 (peptide sequence: LGPHQPASLEHPEHLAGHR, peptide start residue: 226)”, the log2 fold change is -0.407.
Consider “UniProt Q9QYY0 (peptide sequence: SPVETCGVPR, peptide start residue: 355)”, for which the log2 fold change was 0.23.
Next, “UniProt Q9QYJ3 (peptide sequence: SIRNEDKILTIEVK, peptide start residue: 196)”: 0.392.
“UniProt Q9QYT7 (peptide sequence: AQNPMQLMRK, peptide start residue: 266)”: the log2 fold change came to 0.126.
“UniProt Q9WUA6 (peptide sequence: RPHFPQFSYSASGRE, peptide start residue: 465)”: the log2 fold change came to 0.0142.
Under “UniProt Q9R088 (peptide sequence: ILTPENWK, peptide start residue: 260)” stands -0.1; under “UniProt Q9QZS3 (peptide sequence: EKECGVTATFDASR, peptide start residue: 173)”, -0.158.
Under “UniProt Q9WUB4 (peptide sequence: MGDNNVIESK, peptide start residue: 101)” stands -0.401.
With “UniProt Q9WTP7 (peptide sequence: AVIMGAPGSGKGTVSSR, peptide start residue: 10)”, the log2 fold change amounted to 0.108.
Under “UniProt Q9QYX7 (peptide sequence: RMCRTNTMAR, peptide start residue: 3678)” stands -0.0722; under “UniProt Q9WTN0 (peptide sequence: YLLQLPGK, peptide start residue: 18)”, 0.13; under “UniProt Q9QZ08 (peptide sequence: HSSALGGASLGAR, peptide start residue: 309)”, 0.705.
Turning to “UniProt Q9QYI4 (peptide sequence: FHPDKNHAPGATEAFK, peptide start residue: 138)”, the log2 fold change turned out to be 0.187.
For the target “UniProt Q9WU84 (peptide sequence: LACGIIAR, peptide start residue: 225)”, the log2 fold change was -0.198.
Under “UniProt Q9QXV3 (peptide sequence: ENASNNHDHDDITSGTPK, peptide start residue: 160)” stands 0.528; under “UniProt Q9QY66 (peptide sequence: LLEELDHAANR, peptide start residue: 139)”, 0.317.
Under “UniProt Q9QXM1 (peptide sequence: GRSEAAASATAALR, peptide start residue: 80)” stands 0.818.
As for “UniProt Q9QXG2 (peptide sequence: NVITYSQIIK, peptide start residue: 225)”, the log2 fold change was -0.559.
“UniProt Q9QYR6 (peptide sequence: SSRPDTLLSSEQRPGK, peptide start residue: 2378)”: the log2 fold change is -0.089.
As for “UniProt Q9WUD8 (peptide sequence: EGIIHTLIVDNR, peptide start residue: 161)”, the log2 fold change worked out at 0.11.

These data come from the supplement of paper PMC12819154, “High-throughput peptide-centric local stability assay extends protein–ligand identification to membrane proteins, tissues and bacteria” (Nature Structural & Molecular Biology, 2025).
